Test results reported in paper doi:10.1101/2022.06.27.497627.
These are yes or no findings as the source states them, for the method shown. In cells and extracts the contact can be indirect. Some results given as binding are weak or reduced against the parent protein; the word gives no strength.

The chains behind the UniProt entries cited, without tags or fusion partners.
UniProt P27361: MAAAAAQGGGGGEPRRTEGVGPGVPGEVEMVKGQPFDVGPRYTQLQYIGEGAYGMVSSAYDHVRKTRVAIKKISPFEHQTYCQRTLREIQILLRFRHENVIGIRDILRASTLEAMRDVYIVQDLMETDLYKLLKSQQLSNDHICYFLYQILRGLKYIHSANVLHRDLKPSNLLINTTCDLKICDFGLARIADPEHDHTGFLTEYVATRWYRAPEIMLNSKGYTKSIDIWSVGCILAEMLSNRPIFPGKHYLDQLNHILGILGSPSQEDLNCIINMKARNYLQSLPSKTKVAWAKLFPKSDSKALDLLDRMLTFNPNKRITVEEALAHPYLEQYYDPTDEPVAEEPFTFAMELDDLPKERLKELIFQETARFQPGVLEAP

Molecular target: MEK2 (HA-tagged) (UniProt P36507)
Assay: co-IP

With “ERK1 (extracellular regulated protein kinase 1) (from UniProt P27361 1-379) (enzyme)” the binding was “binds”.
